# Tests used:
# Format in all cases: cell-based, Plasmodium falciparum
# [1] = tested on: CYTbQi (cytb G33A, parent Dd2); assay: Cross-resistance EC50 assay, CYTbQi; details: SYBR green 72 hour assay; synchronized parasites; 384-well format; strain CYTbQi (Dd2 parent)
# Source text: (§1) To evaluate potential overlapping activity against known antimalarial drug targets, we performed dose-response studies with each compound against our assembled set of drug-resistant lines and their corresponding parents, in an asexual blood stage proliferation assay (Table 1). Comparisons were made to the drug-sensitive strain 3D7 when a parent was unavailable (TM90C2A, W2 and Dd2). As laboratories conducted EC50 assays with different strains and protocols, all comparisons were made between assays from the same laboratory and under the same assay conditions. Compounds displaying >5-fold EC50 shifts relative to the parent or sensitive strain were flagged as having potentially non-novel targets. Average fold shifts per strain ranged from 0.82 to 2.34, with a median of 1.23 indicating there was not common resistance to any one resistant clone. No resistance patterns were observed when classifying the compounds based on chemical structure, but this was not surprising given the diversity of compounds chosen. On the other hand, given that these confirmed compounds were derived from larger unconfirmed hit lists to which some filtration criteria may have been applied (for example, elimination of obvious dihydrofolate reductase inhibitors[32]), some[10][11][12][13] pre-existing bias may exist in the set. […]
# (§2) Alternatively, a SYBR Green-based proliferation approach was used for the 72-h assay, as previously described. Briefly, a culture of either synchronized or asynchronous parasitized RBCs (0.3% parasitemia and 4% haematocrit) in screening medium (identical to supplemented medium above except no serum was added) was exposed to serial drug dilutions. Plates were incubated at 37 °C and gassed with 93% N2, 4% CO2 and 3% O2 for 72 h. Following incubation, 10 × SYBR Green I (Invitrogen; supplied in 10,000 × concentration) in lysis buffer ([…], 5 mM EDTA, 0.16% Saponin wt per vol and 1.6% Triton X vol per vol) was added to the wells and the plates were incubated overnight at room temperature before plate reading. EC50 assays were repeated three times, taking the average EC50 value from each assay set, and removing any outliers using a single iteration of Grubbs' test, eliminating values with z-scores above the critical z-value (α=0.05). The raw EC50 values for synchronized parasites assayed in a 384-well format are listed in Supplementary Data 4. The raw EC50 values for asynchronous parasites assayed in a 96 or 1536-well format are listed in Supplementary Data 5.
# (§3) EC50 values for each strain were compared with those of the corresponding parent strain to determine fold-shift changes and identify resistance. To minimize the cause variance between assays, all comparisons were conducted between strains assayed under identical conditions. A one-way ANOVA followed by a Dunnet's post-test was conducted in GraphPad Prism to identify significant changes between the parent and resistant strain.
# Dd2 = assay: Cross-resistance EC50 assay, Dd2 parent; details: SYBR green 72 hour assay
# Source text: (§4) Multidrug resistance alleles, including mutations in P. falciparum chloroquine resistance transporter (pfcrt) and P. falciparum multi-drug resistance transporter 1 (pfmdr1) are very common in field isolates. Therefore, we sought to assess the degree to which pre-existing resistance alleles would contribute to a loss of potency for this diverse collection of small molecule compounds. Fifteen clones derived from three main parent lines were chosen to maximize diversity in mutated pathways and genetic backgrounds, thus representing the variety of resistance seen in the field: 3D7 (ref. [23]), W2 (ref. [24]) or Dd2 (ref. [25]). The 3D7 line originates from the clone of a Netherlands clinical isolate strain[23][26] and is generally considered to be drug sensitive, though it does convey resistance to sulfadoxine. Conversely, W2 (ref. [24], [27]) and Dd2 (ref. [25]) are multi-drug-resistant lines originating from the Indochina III/CDC isolate, which contain point mutations in pfcrt as well as amplifications in pfmdr1 and GTP cyclohydrolase.
# as §1, §2, §3
# PfCRT-Q352R (parent Dd2) = assay: Cross-resistance EC50 assay, PfCRT-Q352R; details: SYBR green 72 hour assay; synchronized parasites; 384-well format; strain PfCRT:Q352R (Dd2 parent)
# Source text: as §1, §2, §3
# [2] = tested on: GNF449-R2 (PfATP4 I203L and P990R, parent Dd2); assay: Cross-resistance EC50 assay, GNF449-R2; details: SYBR green 72 hour assay, asynchronized parasites, 96-well or 1536-well format
# Source text: as §1, §2, §3
# 3D7 = assay: Cross-resistance EC50 assay, 3D7 parent / sensitive strain; details: for 3D7-C9-WT (PARENT) Average Hill Slope: strain 3D7-C9-WT (parent of PfATP4 Mut3)
# Source text: as §4
# To evaluate potential overlapping activity against known antimalarial drug targets, we performed dose-response studies with each compound against our assembled set of drug-resistant lines and their corresponding parents, in an asexual blood stage proliferation assay (Table 1). Comparisons were made to the drug-sensitive strain 3D7 when a parent was unavailable (TM90C2A, W2 and Dd2). As laboratories conducted EC50 assays with different strains and protocols, all comparisons were made between assays from the same laboratory and under the same assay conditions. Compounds displaying >5-fold EC50 shifts relative to the parent or sensitive strain were flagged as having potentially non-novel targets. Average fold shifts per strain ranged from 0.82 to 2.34, with a median of 1.23 indicating there was not common resistance to any one resistant clone. No resistance patterns were observed when classifying the compounds based on chemical structure, but this was not surprising given the diversity of compounds chosen. On the other hand, given that these confirmed compounds were derived from larger unconfirmed hit lists to which some filtration criteria may have been applied (for example, elimination of obvious dihydrofolate reductase inhibitors[32]), some[10][11][12][13] pre-existing bias may exist in the set.
# The 48-h assay was carried out in a 96-well format following standard methods using the ^3H-hypoxanthine incorporation assay. The raw EC50 values corresponding to this assay can be found in Supplementary Data 3. Briefly, this assay relies on the parasite incorporation of labelled hypoxanthine that is proportional to P. falciparum growth. A culture of parasitized RBCs (0.5% parasitemia with a percentage of ring stage higher than 70% of total parasitemia, 2.0% haematocrit) in RPMI-1640, […] and 5 μM hypoxanthine was exposed to drug serial dilutions. Plates were incubated for 24 h at 37 °C, 5% CO2, 5% O2 and 90% N2. After 24 h of incubation, ^3H-hypoxanthine was added and plates were incubated for an additional 24-h period. After that, parasites were harvested on a glass fibre filter using a TOMTEC Cell Harvester 96. Filters were dried and melt-on scintillator sheets were used to determine the incorporation of ^3H-hypoxanthine. Radioactivity was measured using a microbeta counter. Data were normalized using the incorporation of the positive (parasitized RBCs without drug) and negative (same culture with artesunate at 2 μM) controls. All assays were conducted in triplicate using three independently grown cultures, and EC50 values were determined using the XLfit add-in module for Excel (version 2.3.1) from Grafit (version 5.3.1.3), where parameter h is the assay hill slope, x is the compound concentration and y is the inhibition of growth effect. The XLfit equation is: […]
# Alternatively, a SYBR Green-based proliferation approach was used for the 72-h assay, as previously described. […]
# [3] = asynchronized parasites, 96-well or 1536-well format, Dd2 parent
# [4] = synchronized parasites, 384-well format, strain Dd2 (parent)
# [5] = SYBR green 72 hour assay, asynchronized parasites, 96-well or 1536-well format, 3D7 parent
# [6] = SYBR green 72 hour assay, synchronized parasites, 384-well format, strain 3D7 (parent)
# [7] = hypoxanthine 48-hour assay, synchronized parasites, 96-well format, strain 3D7 (parent)
# [8] = hypoxanthine 48-hour assay, synchronized parasites, 96-well format
Compound,CYTbQi (Dd2 Parent) Average Hill Slope [1],Dd2 (PARENT) Average Hill Slope (Dd2; [3]),Dd2 (PARENT) Average Hill Slope (Dd2; [4]),PfCRT:Q352R (Dd2 Parent) Average Hill Slope (PfCRT-Q352R (parent Dd2)),GNF449-R2 (Dd2 Parent) Average Hill Slope [2],3D7 (PARENT) Average Hill Slope (3D7; [5]),3D7 (PARENT) Average Hill Slope (3D7; [6]),3D7 (PARENT) Average Hill Slope (3D7; [7]),3D7-C9-WT (PARENT) Average Hill Slope (3D7; [8])
CN(C)S(=O)(=O)c1cc(-c2ccc3nccc(-c4cccc(S(N)(=O)=O)c4)c3c2)cnc1N [MMV024038],3.21,1.99,2.41,2.50,2.06,1.43,3.50,1.41,1.47
Cc1nc2ccc3ccc(CNc4ccc(C(=O)CC(CCC(=O)O)C(=O)O)cc4)cc3c2c(=O)[nH]1.Cl (stereo not shown) [MMV027634],15.1,2.63,5.54,6.51,1.57,1.85,4.77,1.24,1.08
CCN(CC)CCn1c(=N)n(CC(O)c2ccc(Cl)c(Cl)c2)c2ccccc21.Cl (stereo not shown) [MMV000248],22.2,2.22,10.6,17.5,2.36,2.43,10.1,3.60,3.00
Brc1ccc(Nc2nc3ccccc3nc2Nc2ccc(Br)cc2)cc1 [MMV007224],5.19,13.81,5.37,6.48,7.40,5.41,6.35,4.20,3.95
c1cncc(-c2cc(N3CCC(CN4CCOCC4)CC3)nc(-c3ccncc3)n2)c1 [MMV668399],4.15,1.33,4.17,5.36,1.33,2.88,5.27,2.17,1.32
COc1ccc(N2CCN(C(CNC(=O)C3CCCCC3)c3ccc4c(c3)OCO4)CC2)cc1 (stereo not shown) [MMV019662],2.36,1.20,2.20,1.78,1.39,1.31,6.37,1.18,1.84
OC(CNC1CCCCC1)Cn1c2ccc(I)cc2c2cc(I)ccc21 (stereo not shown) [MMV665882],1.86,2.07,2.26,2.07,2.06,1.97,2.38,1.42,1.35
CCC(C)NCC(O)(c1ccc(Cl)cc1)c1ccc(Cl)cc1 (stereo not shown) [MMV665928],2.84,1.73,1.92,1.76,1.10,1.05,7.27,1.34,2.42
CCCN(CCC)CC(O)COc1ccccc1C(=O)Nc1ccccc1 (stereo not shown) [MMV006455],3.05,1.43,1.91,1.89,1.19,0.99,3.34,1.85,–
FC(F)(F)c1cccc(Nc2nc3ccccc3nc2Nc2cccc(C(F)(F)F)c2)c1 [MMV665794],6.62,5.17,3.96,3.48,5.85,4.03,8.25,3.99,–
O=C(NCC(CCCN1CCC(c2c[nH]c3ccccc23)CC1)c1ccccc1)Nc1ccc(Cl)c(Cl)c1 (stereo not shown) [MMV029272],1.42,1.16,1.70,4.97,1.21,1.33,6.12,1.81,1.64
